# Laboratory results reported in article PMC8075378.
# Sequences of proteins named here, by UniProt entry; tags and fusion partners are left off. A change or cut given only in a name is not applied to a line headed by its entry. A line that says so, or that is headed by a name, gives the form on record, which may keep a tag or linker.
# UniProt Q60610: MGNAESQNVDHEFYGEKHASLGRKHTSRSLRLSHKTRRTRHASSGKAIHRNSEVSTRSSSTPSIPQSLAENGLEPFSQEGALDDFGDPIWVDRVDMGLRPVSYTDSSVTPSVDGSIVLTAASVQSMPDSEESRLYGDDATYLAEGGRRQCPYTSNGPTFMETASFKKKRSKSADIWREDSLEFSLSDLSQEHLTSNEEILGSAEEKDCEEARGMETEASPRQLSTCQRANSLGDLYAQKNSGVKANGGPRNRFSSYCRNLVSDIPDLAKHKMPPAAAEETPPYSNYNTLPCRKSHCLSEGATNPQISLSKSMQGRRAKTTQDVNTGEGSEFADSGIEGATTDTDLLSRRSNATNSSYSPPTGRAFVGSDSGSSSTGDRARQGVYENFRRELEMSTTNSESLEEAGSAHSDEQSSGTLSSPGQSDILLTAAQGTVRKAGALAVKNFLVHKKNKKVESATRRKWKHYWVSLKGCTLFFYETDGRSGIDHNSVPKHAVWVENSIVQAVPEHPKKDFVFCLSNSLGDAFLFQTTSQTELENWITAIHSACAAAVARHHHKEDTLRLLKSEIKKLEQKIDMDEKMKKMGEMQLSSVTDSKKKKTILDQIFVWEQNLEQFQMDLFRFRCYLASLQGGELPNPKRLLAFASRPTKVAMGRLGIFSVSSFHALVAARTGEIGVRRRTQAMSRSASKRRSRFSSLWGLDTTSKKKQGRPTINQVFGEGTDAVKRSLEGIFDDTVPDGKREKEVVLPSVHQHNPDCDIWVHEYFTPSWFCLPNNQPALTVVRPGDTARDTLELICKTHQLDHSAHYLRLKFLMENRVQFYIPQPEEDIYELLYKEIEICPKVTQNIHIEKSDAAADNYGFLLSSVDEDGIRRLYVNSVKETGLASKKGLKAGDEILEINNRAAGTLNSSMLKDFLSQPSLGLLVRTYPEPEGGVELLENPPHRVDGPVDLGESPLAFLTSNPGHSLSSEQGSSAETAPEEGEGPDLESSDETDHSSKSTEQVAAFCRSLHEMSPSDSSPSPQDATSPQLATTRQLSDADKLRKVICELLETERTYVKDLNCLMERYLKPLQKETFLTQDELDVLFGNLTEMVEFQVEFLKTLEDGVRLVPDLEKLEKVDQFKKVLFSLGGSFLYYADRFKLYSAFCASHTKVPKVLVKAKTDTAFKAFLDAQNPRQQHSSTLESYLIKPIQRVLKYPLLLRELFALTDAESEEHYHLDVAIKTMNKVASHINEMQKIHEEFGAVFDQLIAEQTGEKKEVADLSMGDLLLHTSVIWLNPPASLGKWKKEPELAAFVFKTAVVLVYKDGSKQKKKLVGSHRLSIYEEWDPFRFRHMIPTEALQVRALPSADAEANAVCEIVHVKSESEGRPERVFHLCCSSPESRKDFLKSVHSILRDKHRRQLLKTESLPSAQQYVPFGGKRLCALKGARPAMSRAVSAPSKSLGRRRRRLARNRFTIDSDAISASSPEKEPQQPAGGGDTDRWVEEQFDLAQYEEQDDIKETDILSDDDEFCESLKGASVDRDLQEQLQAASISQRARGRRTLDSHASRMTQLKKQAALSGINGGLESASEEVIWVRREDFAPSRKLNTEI
# Tiam1-AA, full-length Tiam1 with two point mutations in the βTRCP phospho-degron, HA-tagged (Q60610, form named): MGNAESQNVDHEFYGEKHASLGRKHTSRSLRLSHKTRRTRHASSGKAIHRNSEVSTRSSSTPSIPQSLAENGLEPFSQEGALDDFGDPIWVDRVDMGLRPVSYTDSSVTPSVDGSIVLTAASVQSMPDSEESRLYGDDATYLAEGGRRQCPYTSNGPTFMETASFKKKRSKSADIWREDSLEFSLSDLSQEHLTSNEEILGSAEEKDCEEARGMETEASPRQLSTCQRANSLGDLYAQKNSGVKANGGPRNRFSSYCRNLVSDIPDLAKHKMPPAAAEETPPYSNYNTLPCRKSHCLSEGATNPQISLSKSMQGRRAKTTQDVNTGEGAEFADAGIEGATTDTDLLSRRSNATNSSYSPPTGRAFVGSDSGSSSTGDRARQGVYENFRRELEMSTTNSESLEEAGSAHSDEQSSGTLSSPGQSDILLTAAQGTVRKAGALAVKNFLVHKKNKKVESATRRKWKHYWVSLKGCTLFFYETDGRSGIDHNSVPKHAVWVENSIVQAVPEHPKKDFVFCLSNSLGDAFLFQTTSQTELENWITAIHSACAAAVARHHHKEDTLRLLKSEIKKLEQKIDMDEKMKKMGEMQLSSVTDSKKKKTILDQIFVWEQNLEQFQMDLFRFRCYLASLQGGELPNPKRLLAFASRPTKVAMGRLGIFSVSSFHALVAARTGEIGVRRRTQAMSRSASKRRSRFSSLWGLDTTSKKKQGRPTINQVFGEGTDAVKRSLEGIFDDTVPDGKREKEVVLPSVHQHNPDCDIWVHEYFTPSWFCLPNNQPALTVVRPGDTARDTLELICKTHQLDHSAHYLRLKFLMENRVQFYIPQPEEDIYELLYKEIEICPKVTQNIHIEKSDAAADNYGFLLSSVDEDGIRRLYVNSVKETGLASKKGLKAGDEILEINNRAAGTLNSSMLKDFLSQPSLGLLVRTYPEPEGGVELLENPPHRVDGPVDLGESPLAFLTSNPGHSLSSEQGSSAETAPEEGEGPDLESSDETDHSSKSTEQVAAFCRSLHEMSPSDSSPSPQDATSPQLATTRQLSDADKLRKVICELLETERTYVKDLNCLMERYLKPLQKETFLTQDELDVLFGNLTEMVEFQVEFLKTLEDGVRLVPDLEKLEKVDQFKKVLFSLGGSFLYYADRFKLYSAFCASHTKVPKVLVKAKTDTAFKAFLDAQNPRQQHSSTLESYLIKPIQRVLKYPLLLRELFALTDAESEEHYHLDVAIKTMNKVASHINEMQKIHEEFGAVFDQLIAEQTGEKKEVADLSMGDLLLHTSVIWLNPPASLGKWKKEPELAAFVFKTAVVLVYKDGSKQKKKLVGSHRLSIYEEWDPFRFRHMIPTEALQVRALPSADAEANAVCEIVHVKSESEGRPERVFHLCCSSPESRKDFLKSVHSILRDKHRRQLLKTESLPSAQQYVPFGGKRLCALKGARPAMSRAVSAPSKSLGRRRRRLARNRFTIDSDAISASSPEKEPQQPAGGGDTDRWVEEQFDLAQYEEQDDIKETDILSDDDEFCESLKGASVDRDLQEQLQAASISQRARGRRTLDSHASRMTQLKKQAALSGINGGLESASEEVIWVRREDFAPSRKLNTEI
# UniProt Q9Y297: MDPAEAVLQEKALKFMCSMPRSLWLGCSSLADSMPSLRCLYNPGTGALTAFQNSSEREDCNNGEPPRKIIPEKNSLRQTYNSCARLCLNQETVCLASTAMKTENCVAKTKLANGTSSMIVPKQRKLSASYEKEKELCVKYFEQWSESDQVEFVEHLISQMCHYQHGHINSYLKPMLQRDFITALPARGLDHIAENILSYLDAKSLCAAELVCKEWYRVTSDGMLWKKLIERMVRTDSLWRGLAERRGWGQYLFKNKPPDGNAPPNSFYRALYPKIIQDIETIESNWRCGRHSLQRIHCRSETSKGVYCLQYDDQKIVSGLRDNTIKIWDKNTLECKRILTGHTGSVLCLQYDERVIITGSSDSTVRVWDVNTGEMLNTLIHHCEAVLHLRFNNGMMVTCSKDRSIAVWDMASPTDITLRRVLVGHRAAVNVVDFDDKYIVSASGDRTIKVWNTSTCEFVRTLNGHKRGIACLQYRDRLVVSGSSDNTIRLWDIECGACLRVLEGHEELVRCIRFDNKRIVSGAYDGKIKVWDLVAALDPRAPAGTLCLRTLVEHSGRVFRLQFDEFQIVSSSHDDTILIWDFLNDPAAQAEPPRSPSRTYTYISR
# Results are given in words; binding and its absence hold for the method and conditions named. Binding seen in cells or lysates may run through a third protein. Some results given as binding are weak or reduced against the parent protein; the word gives no strength.
# Tests used:
# [1] = molecular target: Tiam1-AA, full-length Tiam1 with two point mutations in the βTRCP phospho-degron, HA-tagged (mouse) (UniProt Q60610); test: co-IP; immunoprecipitation of HA-tagged Tiam1 constructs (doxycycline-induced) from HCT116 lysates, western blot for endogenous βTRCP; performed as described previously (Whalley et al., 2015)
# [2] = molecular target: wild-type Tiam1 (mouse), HA-tagged, doxycycline-inducible (mouse) (UniProt Q60610); test: as above
substance,measurement,setting,value
"βTRCP (F-box/WD repeat-containing protein 1A), endogenous (from UniProt Q9Y297 1-605)",binding,[1],no binding
same,binding,[2],binds
